According to PubChem BioAssay AID445 (National Center for Advancing Translational Sciences (NCATS), 2006):
This is one part of the list. Shown are side measurements of this screen, not its main read-out; they come without a call. Compounds called inactive in the main read-out are mostly missing here. Potencies come from curve fits of mixed quality, noted in brackets.

Assay: IkB Signaling
Conditions: ABC-DLBCL IkBa-CBG/CBR dual luciferase ratio (green luciferase fused to IkBa over red control in OCI-Ly3 lymphoma cells), 4 h
How it was run: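 Curves were fitted separately to fusion (green), unfused (red) and ratio luminescence, then classed by r2, magnitude and activity. Cells: OCI-Ly3, 4 h compound plus doxycycline at 37C; 10 uM MG-132 defined full response.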

[1] = measured here: control luc red channel unless noted

O=C(C1CCN(S(=O)(=O)Cc2ccccc2)CC1)N1CCN(c2ccccc2)CC1
AC50 [1]: 31.6 µM [falling, single point]

NC(=O)c1nc(Nc2ccccc2)sc1NC(=O)c1ccccc1Br
AC50 [1]: 0.316 µM [falling, full curve, poor fit]

COc1ccc(OC)c2[nH]c(=O)c(CCNC(=O)c3cc4ccccc4o3)cc12
AC50 [1]: 25.1 µM [falling, single point]

COc1cc(OC)cc(-c2cc3nc(C)c(CCC(=O)NCc4ccc(Cl)cc4)c(C)n3n2)c1
AC50 [1]: 3.16 µM [falling, full curve]

Cc1cccc(N2CCN(C(=O)Cn3ncc4c5ccccc5n(C)c4c3=O)CC2)c1C
AC50 [1]: 12.6 µM [falling, partial curve]

COc1ccc(C(=O)Nc2ccc(-n3nncc3-c3ccccc3)cc2)cc1OC
AC50 [1]: 31.6 µM [falling, single point]

COc1ccc(OC)c(CNC(=O)C2CCN(c3nc4ccccc4nc3C(F)(F)F)CC2)c1
AC50 [1]: 25.1 µM [rising, partial curve]

Cc1ccc(-n2nc(CO)c(C(=O)NCc3cccnc3)n2)cc1
AC50 [1]: 25.1 µM [falling, single point]

CCc1ccc(S(=O)(=O)c2cn(Cc3ccccc3)c3cc(F)c(F)cc3c2=O)cc1
AC50 [1]: 10 µM [falling, partial curve]

CCc1ccccc1Nc1nc2ccccc2c2nncn12
AC50 [1]: 39.8 µM [falling, single point]

COc1cc(NC(=O)Nc2cccc(-c3noc(C)n3)c2)cc(OC)c1OC
AC50 [1]: 39.8 µM [falling, single point]

Cc1cc(N2C(=O)CC(N3CCN(c4ccc(C(=O)c5cccs5)cc4)CC3)C2=O)no1 (centres undefined)
AC50 [1]: 3.16 µM [falling, full curve]

Cc1ccc(Cl)cc1NC(=O)Cc1ccc(-n2c(C)nc3cccnc32)cc1
AC50 [1]: 12.6 µM [falling, partial curve]

CCCc1nn2c(=O)cc(COC(=O)c3ccccc3NC(=O)c3cccs3)nc2s1
AC50 [1]: 12.6 µM [rising, partial curve]

COc1ccc(N(Cc2cccs2)C(=O)c2ccc(OCC(C)C)cc2)cc1
AC50 [1]: 7.94 µM [falling, partial curve]

O=C(CSc1ncccc1-c1nc2ccccc2[nH]1)N1CCN(c2ccccc2F)CC1
AC50 [1]: 0.398 µM [falling, full curve]

Cc1ccc(OCC(=O)Nc2ccc(Cl)c(-c3nc4ncccc4o3)c2)c(C)c1
AC50 [1]: 10 µM [falling, partial curve]

CCOC(=O)c1cccc(NC(=O)c2cc3c(-c4cccc(OC)c4)nn(C)c3s2)c1
AC50 [1]: 3.98 µM [falling, full curve]

Cc1ccc(S(=O)(=O)c2nc(S(C)(=O)=O)sc2N(C)Cc2ccccc2)cc1
AC50 [1]: 15.8 µM [falling, partial curve]

COc1ccc(NCc2cc3cc4c(cc3n(CC(=O)Nc3cc(C)cc(C)c3)c2=O)OCO4)cc1
AC50 [1]: 10 µM [falling, partial curve]

O=C(COc1ccccc1Cl)Nc1nnc(S(=O)(=O)N2CCCCCC2)s1
AC50 [1]: 0.0398 µM [rising, full curve, poor fit]

CCOC(=O)COc1ccccc1C1C(C(=O)OC)=C(C)NC2=C1C(=O)c1ccccc12 (centres undefined)
AC50 [1]: 39.8 µM [falling, single point]

COc1cc(NC(=O)CCc2c(C)nc3cc(-c4ccccc4)nn3c2C)cc(OC)c1OC
AC50 [1]: 7.94 µM [falling, partial curve]

COc1ccccc1N(CC(=O)Nc1ccc2c(c1)OCO2)S(=O)(=O)c1ccccc1
AC50 [1]: 12.6 µM [falling, partial curve]

Cc1ccc2c(c1)c(=O)c(C(=O)c1ccc3c(c1)OCO3)cn2Cc1ccc(Cl)cc1
AC50 [1]: 20 µM [falling, partial curve]

CSc1ccc(/C=C/c2nc3ccccc3n2S(=O)(=O)c2cccc(Cl)c2)cc1
AC50 [1]: 0.02 µM [falling, full curve]

CCC(CC)C(=O)Nc1nnc(SCc2cc(=O)n3cccc(C)c3n2)s1
AC50 [1]: 39.8 µM [falling, single point]

Cc1oc2ncnc(N3CCCCC3)c2c1C(=O)N1CCN(c2cccc(Cl)c2)CC1
AC50 [1]: 39.8 µM [falling, single point]

CCCN1C(=O)C2(c3ccccc31)c1c(oc3ccc(F)cc3c1=O)C(=O)N2CCCOC(C)C (centres undefined)
AC50 [1]: 25.1 µM [falling, partial curve]

CC(C)(C)n1nnnc1C(c1cccs1)N1CCCc2ccccc21 (centres undefined)
AC50 [1]: 20 µM [falling, partial curve]

CCc1nonc1NC(=O)c1oc2ccc(Br)cc2c1C
AC50 [1]: 0.631 µM [rising, full curve]

NC(=O)c1c(NC(=O)CSc2nnc(-c3ccco3)n2-c2ccccc2)sc2c1CCC2
AC50 [1]: 15.8 µM [falling, partial curve]

CCOc1ccccc1N1CCN(c2nc(N)c(C#N)c(CC#N)c2C#N)CC1
AC50 [1]: 25.1 µM [falling, single point]

Cc1ccc(NC(=O)C2CCCN(S(=O)(=O)c3cccc4cccnc34)C2)cc1 (centres undefined)
AC50 [1]: 39.8 µM [falling, single point]

O=C(/C=C/Nc1ccccc1Br)c1ccccn1
AC50 [1]: 15.8 µM [falling, partial curve]

Cc1ccc(Cl)cc1NC(=O)c1oc2ccc(S(=O)(=O)N3CCCCC3)cc2c1C
AC50 [1]: 0.398 µM [rising, full curve]

CCOC(=O)N1CCC(Nc2c(N3CCN(c4cc(Cl)ccc4C)CC3)c(=O)c2=O)CC1
AC50 [1]: 15.8 µM [falling, partial curve]

Cc1nn(C(C)C(=O)N2CCN(c3ccc(Cl)cc3)CC2)c(=O)c2cc3occc3n12 (centres undefined)
AC50 [1]: 15.8 µM [falling, partial curve]

Cc1ccc(S(=O)(=O)N2CCC(C(=O)Nc3ccc(C)c(Cl)c3)CC2)cc1
AC50 [1]: 3.16 µM [falling, full curve]

COc1ccc(CCNC(=O)C(=O)NCC(c2cccs2)S(=O)(=O)c2ccc(C)cc2)cc1 (centres undefined)
AC50 [1]: 39.8 µM [falling, partial curve, poor fit]

CCOC(=O)c1c(C)[nH]c(C)c1S(=O)(=O)N1CCN(c2cccc(C(F)(F)F)c2)CC1
AC50 [1]: 25.1 µM [falling, single point]

COc1ccc(C(=O)Nc2cccc(C)c2)cc1
AC50 [1]: 10 µM [falling, partial curve]

Cc1ccnc(-n2sc3ccccc3c2=O)n1
AC50 [1]: 12.6 µM [falling, partial curve]

COc1ccc(CNC(=O)CCCn2nc(C)c3c(C)n(-c4ccccc4)nc3c2=O)cc1
AC50 [1]: 20 µM [falling, single point]

COc1ccc(OC)c(NS(=O)(=O)c2ccc(-c3cc(C)no3)s2)c1
AC50 (measured here: IkB-luc green channel): 15.8 µM [rising, partial curve]
AC50 (measured here: control luc red channel): 5.01 µM [rising, partial curve]

CCn1cc2nc(SCc3cccc(Cl)c3)n(Cc3ccc(C)cc3)c(=O)c2n1
AC50 [1]: 25.1 µM [falling, single point]

O=C(O)C1CC(=O)N(c2ccc(OCc3ccccc3Cl)cc2)C1 (centres undefined)
AC50 [1]: 6.31 µM [falling, partial curve]

CC(C)c1cnc2c(c1SCC(=O)Nc1cccc(F)c1)c(=O)n(C)c(=O)n2C
AC50 [1]: 31.6 µM [falling, single point]

O=C(Nc1cccc(F)c1)C1CCN(S(=O)(=O)c2cccc3nsnc23)CC1
AC50 [1]: 39.8 µM [falling, single point]

COc1cc2c(cc1OC)CN(c1ccc(-c3ccccc3OC)nn1)CC2
AC50 [1]: 12.6 µM [falling, partial curve]

CN=c1scc(C)n1/N=C/c1ccc2c(c1)OCO2
AC50 [1]: 25.1 µM [falling, single point]

CCCN(CCC)S(=O)(=O)c1ccc(C(=O)Nc2sc3c(c2C(=O)OC)CCN(CC)C3)cc1
AC50 [1]: 31.6 µM [falling, partial curve]

O=C(CN1CCSc2ccccc21)N1CCN(c2ccc(F)cc2)CC1
AC50 [1]: 31.6 µM [falling, partial curve, poor fit]

CCCN(Cc1cccs1)C(=O)Nc1cc(OC)ccc1OC
AC50 [1]: 15.8 µM [falling, single point]

O=C(Nc1ccccc1F)c1cc(S(=O)(=O)N2CCCCC2)cs1
AC50 [1]: 20 µM [falling, partial curve]

Cc1ccc(-n2nc3c(N4CCC(C(=O)NCc5ccccc5Cl)CC4)nnc(C)c3c2C)cc1
AC50 [1]: 10 µM [falling, partial curve]

N#CC1=C2SCN(Cc3ccco3)CN2C(=O)CC1c1cccc2ccccc12 (centres undefined)
AC50 [1]: 10 µM [falling, partial curve]

Cc1ccc(-c2nn3c(C)nnc3s2)cc1NC(=O)c1ccc(-c2cccc(Cl)c2)o1
AC50 [1]: 3.98 µM [falling, full curve]

Cc1cc(=O)c2cc(C(=O)Nc3ccccc3C)ccc2[nH]1
AC50 [1]: 1.26 µM [rising, partial curve]

CCOc1cc2sc(N3CCC(C(=O)Nc4cc(C)cc(C)c4)CC3)nc2cc1Br
AC50 [1]: 12.6 µM [falling, partial curve]

COC(=O)c1ccc(CSc2nnc3ccc4ccccc4n23)cc1
AC50 [1]: 31.6 µM [falling, single point]

Cn1ncc2c(Nc3ccc4ccccc4c3)ncnc21
AC50 [1]: 1 µM [rising, full curve]

COc1ccccc1Cn1cc(C(=O)c2ccc(C)cc2)c(=O)c2cc3c(cc21)OCCO3
AC50 [1]: 15.8 µM [falling, single point]
